Test results taken from publication PMC7804408.
Results are given in words; binding and its absence hold for the method and conditions named. Binding seen in cells or lysates may run through a third protein. These calls come from enrichment with a bait or labelling near it, and not all partners need be listed. For some assays here: A no says only that the protein was not detected with the bait.

Tests used:
[1] = target: ClpP^trap-SPA (catalytically inactive ClpP S111A with SPA tag) (E. coli) (UniProt P0A6G7); test: affinity purification with mass spectrometry; ClpP^trap-SPA pulled down on FLAG antibody resin from lysate of MC4100 ΔclpPΔclpAΔsmpB (TF strain), eluted with FLAG peptide, LC-MS/MS
[2] = target: ClpP^trap-SPA (catalytically inactive ClpP S111A with SPA tag) (E. coli) (UniProt P0A6G7); test: condition: only in the strain lacking TF (ΔclpPΔclpAΔsmpBΔtig); affinity purification with mass spectrometry; ClpP^trap-SPA pulled down on FLAG antibody resin from lysate of MC4100 ΔclpPΔclpAΔsmpBΔtig (no TF strain), eluted with FLAG peptide, LC-MS/MS

binding [1]: binds
binding [2]: no binding
Substance: RpoS (from UniProt P13445 1-330)
